Measured values reported in PMC3411645.
No constants are given. Whether binding was seen depends on the method and setting. In cells and extracts the contact can be indirect. Some entries that bind do so weakly or less than the wild type.

Target: HA-tagged hERG1a (wild type) (human) (UniProt Q12809)
Assay: co-IP; double-stable Flp-Cre cells co-expressing hERG1a-HA and a Flag-tagged hERG1 isoform at a 1:1 ratio (both CMV promoter); lysis in 10 mM Tris-HCl pH 8.0, 150 mM NaCl, 5 mM EDTA, 1% Triton X-100, 1 mg/ml BSA; IP with anti-HA, blot with anti-Flag

Flag-tagged hERG1b (wild type) (from UniProt Q12809-2 1-819)
binding: binds

HA-tagged hERG1a (wild type) (from UniProt Q12809 1-1159)
binding: binds
